Measurements reported in PubChem BioAssay AID1259254 (NCATS, 2017).
Purpose: 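Gene knock-downs that lead to re-replication, shown by excess G2 DNA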 (primary screen). Cells: human HCT116 colorectal cancer cells. Reagent: single siRNA against human genes. Timing: 3 days. Measurement: 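Nuclei stained with Hoechst and imaged; cell-cycle phase assigned by DNA content; G2 share scaled per plate, non-targeting siRNA 0%, GMNN siRNA 100%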. Reading the numbers: G2 robust z-score and G2 cells, % of GMNN control: higher = more G2 cells, more excess DNA replication. Rule for the call: 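An siRNA counts as active if its G2 robust z-score lies at least 5 MADs above the screen median; here such calls match roughly 38% of GMNN control or more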.
In all, the deposit lists about 59,000 reagents; this is an unselected part. In the full data, about 1,550 (2.6%) were called active. 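G2 share is only a proxy for re-replication; each gene was hit by three separate siRNAs, and active genes were retested.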 Entries without a mark were called inactive. The numbers tell different reagents against one gene apart. Further read-outs or replicates are left out here. Reagent sequences are not shown. Not stated in the record: the amount of reagent.

gene knocked down	siRNA no.	G2 robust z-score	G2 cells, % of GMNN control
PGM1	1	-1.02	-4.2
PGM1	2	1.43	13.1
PGM1	3	2.41	19.9
HSPBP1	1	6.97 (active)	52
HSPBP1	2	-1.42	-7.05
HSPBP1	3	0.439	6.06
C3orf22	1	-0.534	-0.787
C3orf22	2	-0.192	1.61
C3orf22	3	0.166	4.13
OSGIN2	1	0.841	8.89
OSGIN2	2	0.498	6.47
OSGIN2	3	2.36	19.6
ATP5MC1	1	-1.2	-5.46
ATP5MC1	2	-0.846	-2.99
ATP5MC1	3	0.374	5.6
ZNF207	1	-0.286	0.955
ZNF207	2	-0.00275	2.95
ZNF207	3	1.14	11
DNAJC19	1	1.26	11.9
DNAJC19	2	-0.178	1.72
DNAJC19	3	0.275	4.9
ARL6IP4	1	0.275	4.9
ARL6IP4	2	0.284	4.97
ARL6IP4	3	-0.306	0.814
TMEM213	1	0.314	5.18
TMEM213	2	-0.569	-1.04
TMEM213	3	0.717	8.01
DHODH	1	-0.399	0.161
DHODH	2	2.67	21.8
DHODH	3	-0.282	0.986
NUP214	1	0.235	4.62
NUP214	2	-0.122	2.11
NUP214	3	4.35	33.6
NELFB	1	1.46	13.2
NELFB	2	-0.396	0.178
NELFB	3	0.615	7.3
RBIS	1	-0.262	1.12
RBIS	2	-0.216	1.45
RBIS	3	0.907	9.35
IRX5	1	5.46 (active)	41.3
IRX5	2	-0.875	-3.19
IRX5	3	2.52	20.7
HNRNPDL	1	0.485	6.38
HNRNPDL	2	-0.015	2.86
HNRNPDL	3	2.32	19.3
FAM124B	1	1.06	10.4
FAM124B	2	-0.418	0.0279
FAM124B	3	-0.453	-0.222
WDR59	1	-0.133	2.03
WDR59	2	-0.563	-0.997
WDR59	3	0.847	8.93
ASB16-AS1	1	2.53	20.8
ASB16-AS1	2	-0.597	-1.23
ASB16-AS1	3	0.575	7.02
P2RX6	1	-0.832	-2.88
P2RX6	2	-0.574	-1.07
P2RX6	3	-1.11	-4.85
RXFP3	1	2.55	20.9
RXFP3	2	-0.443	-0.147
RXFP3	3	-0.898	-3.35
GDF7	1	5.69 (active)	43
GDF7	2	2.63	21.5
GDF7	3	-0.611	-1.33
EPO	1	-1.13	-4.97
EPO	2	-1.14	-5.08
EPO	3	0.354	5.46
CPNE8	1	-0.561	-0.979
CPNE8	2	0.109	3.73
CPNE8	3	-0.228	1.37

Targets above whose target name starts with D or d:
gene knocked down	siRNA no.	G2 robust z-score	G2 cells, % of GMNN control
DNAJC19	1	1.26	11.9
DNAJC19	2	-0.178	1.72
DNAJC19	3	0.275	4.9
DHODH	1	-0.399	0.161
DHODH	2	2.67	21.8
DHODH	3	-0.282	0.986
